# Source: PMC3668579
# No constants are given. Whether binding was seen depends on the method and setting.
# Target: ErpC (Borrelia burgdorferi) (UniProt Q44790)
# Experiment: SEC-MALS; 100 µg of sample injected onto a Superdex 200 10/300 column; Dawn Helios II and Optilab T-rEX; analysed with ASTRA; both purified
substance,measurement,value
ErpC (from UniProt Q44790 21-179),binding,no binding (tested: 100 µg of sample injected)
